The supplement of paper PMC10689618
Where a name gives a salt, the structure may show the parent alone. The list shows a part of the results. Many values rest on one well or one pass, so single values are uncertain.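 Labelled rat cortical synaptosomes were engulfed by primary human fetal astrocytes. Engulfment equaled a red/green ratio, corrected for calcein live-cell signal and normalized to the plate median. Compounds were toxic when calcein dropped over 30%, and reduced phagocytosis when below 70% of the median above 5 µM.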

How the values were obtained:
Human fetal astrocytes [1] = test: loss of total cells relative to no-compound high-control median (toxicity); higher = more toxic (fewer cells); details: 24 h
Human fetal astrocytes [2] = test: synaptosome phagocytosis (pHrodo/calcein intensity ratio) relative to plate median of data wells; higher = more phagocytosis; details: 24 h

Structure (SMILES) | loss of total cells (Human fetal astrocytes [1]; 1.39 µM) | loss of total cells (Human fetal astrocytes [1]; 2.78 µM) | loss of total cells (Human fetal astrocytes [1]; 5.56 µM) | loss of total cells (Human fetal astrocytes [1]; 11.11 µM) | loss of total cells (Human fetal astrocytes [1]; 22.22 µM) | synaptosome phagocytosis (Human fetal astrocytes [2]; 1.39 µM) | synaptosome phagocytosis (Human fetal astrocytes [2]; 2.78 µM) | synaptosome phagocytosis (Human fetal astrocytes [2]; 5.56 µM) | synaptosome phagocytosis (Human fetal astrocytes [2]; 11.11 µM) | synaptosome phagocytosis (Human fetal astrocytes [2]; 22.22 µM)
CCCN(CCC)[C@@H]1CCc2c(F)ccc(O)c2C1 [R(+)-UH-301 hydrochloride] | -11.5% | -34.4% | -2.8% | 1.9% | -24.7% | 103% | 77.6% | 103% | 104% | 94.8%
O=C(O)c1nn(Cc2ccc(Cl)cc2Cl)c2ccccc12 [Lonidamine] | -14.7% | 4.1% | 1.4% | 8.6% | 15% | 96.3% | 74.2% | 70% | 77% | 69.9%
c1ccc2c(N3CCNCC3)cccc2c1 [1-(1-Naphthyl)piperazine hydrochloride] | -29.5% | -12.3% | -5.6% | -1.9% | -18.1% | 109% | 116% | 116% | 108% | 100%
Cc1o[nH]c(=O)c1CC(N)C(=O)O (racemic) [(±)-AMPA hydrobromide] | -0.4% | -17.9% | 6.6% | -3.1% | 1.6% | 114% | 106% | 85.1% | 98.6% | 103%
Cc1sc2ccccc2c1CC1=NCCN1 [Benazoline oxalate] | -4% | -10.8% | -13.4% | -11.2% | 4.1% | 169% | 125% | 107% | 81.3% | 133%
C[C@]12CC[C@@H](O)C[C@@H]1CC[C@@H]1[C@@H]2CC[C@]2(C)[C@@H](O)CC[C@@H]12 [5alpha-Androstane-3alpha,17beta-diol] | -4% | -5.1% | -5.1% | 11.2% | -4.1% | 93.9% | 141% | 142% | 107% | 99.8%
N#CC(C#N)=Cc1cc(O)c(O)c(O)c1 [Tyrphostin 25] | -44.4% | -11.7% | 2.2% | -18% | -18.9% | 84.9% | 94% | 102% | 146% | 115%
Clc1ccc(N2CC3CCC(C2)N3)nn1 | 2.1% | -13.7% | 3.3% | -3.1% | 12% | 97.9% | 105% | 105% | 97.7% | 120%
CC1Cc2cc3c(cc2C(c2ccc(N)cc2)=NN1)OCO3 (stereo not given) | -14.6% | -5.1% | 15.6% | -4.9% | 1.6% | 103% | 103% | 118% | 130% | 70%
